PubChem BioAssay AID652259, Drosophila RNAi Screening Center – 2013

Assay: 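Knock-downs that push a Wingless-driven reporter up or down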 (primary screen)
Cell system: Drosophila clone 8 imaginal disc epithelial cells
Reagent: long dsRNA against Drosophila genes
Conditions: pathway stimulated by co-transfected Wingless expression plasmid
Read-out: 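Firefly luciferase from a tcf-site Wingless reporter, measured alongside co-transfected Renilla luciferase that tracks transfection; pathway stimulated by a Wingless plasmid; the firefly-to-Renilla ratio is not deposited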
Direction: firefly reporter light: higher = more Wg reporter light, before normalisation; Renilla control light: higher = more transfected or surviving cells
Call rule: 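Strong candidates differ from their plate mean by at least two out of four per-plate statistical tests; weak candidates meet just one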
Calls: active = candidate regulator (raises or lowers reporter); inactive = not a candidate
The deposit covers about 22,000 reagents; this is a random part of those that have a named target and a result. Over the whole deposit, 233 (1.1%) are marked active. 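Light values are raw, unnormalised plate reads; the ratio scores behind the reporter calls were not deposited.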 A number with no mark means an inactive call. The numbers tell different reagents against one gene apart. Names joined by + are all predicted targets of the reagent. No sequences are given here. Not stated in the record: the amount of reagent, the time to read-out, the dose of the treatment.

| target | reagent no. | firefly reporter light, replicate 1 | firefly reporter light, replicate 2 | Renilla control light, replicate 1 | Renilla control light, replicate 2 |
| --- | --- | --- | --- | --- | --- |
| CG15127 (GeneID 50203) | 1 | 19094 | – | 15248 | – |
| CG15127 (GeneID 50203) | 2 | 7594 | – | 2808 | – |
| AMPdeam (GeneID 32352) | 1 | 539 | – | 322 | – |
| AMPdeam (GeneID 32352) | 2 | 1449 | 6107 | 599 | 2119 |
| AMPdeam (GeneID 32352) | 3 | 23623 | – | 11651 | – |
| AMPdeam (GeneID 32352) | 4 | 25460 | – | 13363 | – |
| ACOX1 (GeneID 37028) | 1 | 8616 | – | 4648 | – |
| BomS2 (GeneID 49802) | 1 | 5.39e5 | 5.89e5 | 2.38e5 | 2.25e5 |
| Prp4k (GeneID 38032) | 1 | 9360 | – | 2661 | – |
| CG18789 (GeneID 317813) | 1 | 3286 | 12658 | 1876 | 5722 |
| Prosbeta4R1 (GeneID 33449) | 1 | 3435 | 5654 | 1260 | 2027 |
| CG14285 (GeneID 42281) | 1 | 15740 | – | 3562 | – |
| CG4511 (GeneID 41305) | 1 | 15180 | – | 4633 | – |
| CG42496 + Ppcdc | 1 | 22464 | – | 11666 | – |
| Gr57a (GeneID 37347) | 1 | 4704 | – | 2438 | – |
| PH4alphaNE2 (GeneID 43628) | 1 | 4877 | – | 2794 | – |
| brwl (GeneID 34275) | 1 | 15928 | – | 4675 | – |
| brwl (GeneID 34275) | 2 | 6242 | – | 2965 | – |
| CG2889 (GeneID 31977) | 1 | 21461 | – | 8164 | – |
| Cpr65Av (GeneID 318014) | 1 | 1651 | 8371 | 1753 | 5008 |
| CR43087 + CR43086 + CG34002 | 1 | 4339 | – | 2131 | – |
| CG10822 (GeneID 37274) | 1 | 5077 | – | 1299 | – |
| CG3862 (GeneID 33261) | 1 | 18409 | – | 8176 | – |
| CG10147 (GeneID 38733) | 1 | 1476 | 5879 | 1076 | 2385 |
| pcx (GeneID 31204) | 1 | 17811 | – | 14416 | – |
| pcx (GeneID 31204) | 2 | 23125 | – | 20185 | – |
| pcx (GeneID 31204) | 3 | 19065 | – | 14578 | – |
| pcx (GeneID 31204) | 4 | 16813 | – | 15094 | – |
| pcx (GeneID 31204) | 5 | 29136 | – | 15858 | – |
| pcx (GeneID 31204) | 6 | 4445 | 11368 | 1616 | 3979 |
| CG15753 (retired record) (GeneID 32306) | 1 | 4422 | 7.66e5 | 1430 | 3.37e5 |
| CG15753 (retired record) (GeneID 32306) | 2 | 3528 | 8000 | 1360 | 2901 |
| CG15753 (retired record) (GeneID 32306) | 3 | 17275 | – | 10000 | – |
| CG15753 (retired record) (GeneID 32306) | 4 | 16251 | – | 8729 | – |
| CG15753 (retired record) (GeneID 32306) | 5 | 15987 | – | 3136 | – |

A portion taken from the entries so far:
| target | reagent no. | firefly reporter light, replicate 1 | firefly reporter light, replicate 2 | Renilla control light, replicate 1 | Renilla control light, replicate 2 |
| --- | --- | --- | --- | --- | --- |
| BomS2 (GeneID 49802) | 1 | 5.39e5 | 5.89e5 | 2.38e5 | 2.25e5 |
| Prp4k (GeneID 38032) | 1 | 9360 | – | 2661 | – |
| CG18789 (GeneID 317813) | 1 | 3286 | 12658 | 1876 | 5722 |
| Prosbeta4R1 (GeneID 33449) | 1 | 3435 | 5654 | 1260 | 2027 |
| CG14285 (GeneID 42281) | 1 | 15740 | – | 3562 | – |
| CG4511 (GeneID 41305) | 1 | 15180 | – | 4633 | – |
| CG42496 + Ppcdc | 1 | 22464 | – | 11666 | – |
| Gr57a (GeneID 37347) | 1 | 4704 | – | 2438 | – |
| PH4alphaNE2 (GeneID 43628) | 1 | 4877 | – | 2794 | – |
| brwl (GeneID 34275) | 1 | 15928 | – | 4675 | – |
| brwl (GeneID 34275) | 2 | 6242 | – | 2965 | – |
| CG2889 (GeneID 31977) | 1 | 21461 | – | 8164 | – |

Continued:
| target | reagent no. | firefly reporter light, replicate 1 | firefly reporter light, replicate 2 | Renilla control light, replicate 1 | Renilla control light, replicate 2 |
| --- | --- | --- | --- | --- | --- |
| robl37BC (GeneID 35166) | 1 | 2784 | 9649 | 992 | 3569 |
| IntS14 (GeneID 33300) | 1 | 12011 | – | 5312 | – |
| Bili (GeneID 43019) | 1 | 4256 | 6765 | 1491 | 1274 |
| GstD2 (GeneID 48335) | 1 | 16736 | – | 4586 | – |
| CG12992 (GeneID 32733) | 1 | 19963 | – | 8192 | – |
| CG11509 (retired record) (GeneID 31115) | 1 | 3940 | 12693 | 1959 | 4176 |
| CG10949 (GeneID 35310) | 1 | 7954 | – | 3336 | – |
| CG10993 (GeneID 32344) | 1 | 28006 | – | 16180 | – |
| Timp (GeneID 41248) | 1 | 8029 | – | 3072 | – |
| CG17377 (GeneID 33954) | 1 | 29826 | – | 13377 | – |
| CG17377 (GeneID 33954) | 2 | 18141 | – | 6661 | – |
| CG17377 (GeneID 33954) | 3 | 5.94e5 | 6.80e5 | 1.78e5 | 1.87e5 |
| CG15478 (GeneID 31679) | 1 | 24714 | – | 15393 | – |
| CG10839 (GeneID 34944) | 1 | 3292 | 4780 | 913 | 2505 |
| Dredd (GeneID 31011) | 1 | 2061 | 5098 | 752 | 1497 |
| bip1 (GeneID 38891) | 1 | 5312 | – | 1720 | – |
| CAH8 (GeneID 42625) | 1 | 33771 | – | 6664 | – |
| Galt (GeneID 33935) | 1 | 9015 | – | 3417 | – |
| CG7997 (GeneID 36829) | 1 | 14393 | – | 4441 | – |
| Tif-IA (GeneID 35454) | 1 | 8776 | – | 3091 | – |
| Tif-IA (GeneID 35454) | 2 | 2044 | 8612 | 898 | 3813 |
| Sfxn1-3 (GeneID 40552) | 1 | 20597 | – | 5613 | – |
| SmD3 (GeneID 36306) | 1 | 11031 | – | 1668 | – |
| Parg (GeneID 31329) | 1 | 2509 | 7799 | 1264 | 2720 |
| chb (GeneID 43901) | 1 | 4987 | – | 1696 | – |
| peg (GeneID 50050) | 1 | 17457 | – | 2716 | – |
| Slc25A46a (GeneID 32564) | 1 | 2225 | 7020 | 1056 | 2432 |
| CG4324 (GeneID 37830) | 1 | 2758 | 6868 | 469 | 2076 |
| CG3513 (GeneID 33590) | 1 | 3520 | 6535 | 1351 | 3292 |
| Bace (GeneID 34182) | 1 | 4633 | – | 496 | – |
| CG7607 (GeneID 39263) | 1 | 7253 | – | 3683 | – |
| CG6985 (GeneID 42694) | 1 | 4915 | 8539 | 2087 | 2851 |
| CG31010 (GeneID 318555) | 1 | 4944 | – | 1488 | – |
| CG5421 (GeneID 34661) | 1 | 3113 | 7202 | 1256 | 3080 |
| dpr14 (GeneID 31702) | 1 | 2320 | 5738 | 1088 | 2581 |
| GM130 (GeneID 37524) | 1 | 10913 | – | 2912 | – |
| CG5882 (GeneID 43269) | 1 | 5173 | – | 2336 | – |
| CG34163 (GeneID 5740407) | 1 | 13778 | – | 6499 | – |
